PubChem BioAssay AID686938 | Drosophila RNAi Screening Center | 2013
The deposit covers about 23,000 reagents; shown is a random part of those that have a named target and a result. Of all reagents, 75 (0.33%) are marked active. 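Raw plate signals without normalisation; calls rest on plate z-scores that were not deposited; ratio present for only 364 wells.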 Unmarked entries are inactive. A plus sign joins genes that one reagent is predicted to hit. Not stated in the record: the dose of the treatment.

Purpose: 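Knock-downs reducing store-operated calcium influx in Drosophila cells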 (primary screen)
Cells: Drosophila S2R+ cells
Reagents: long dsRNA against Drosophila genes, about 0.25 µg dsRNA per well, roughly 10,000 cells
Duration: 5 days of knock-down before the calcium assay
Conditions: thapsigargin (SERCA pump blocker) to empty calcium stores; entry signal taken 4 min after adding it
Measured: 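Duplicate raw fluo-4 intensities per well from a plate reader, at rest and four minutes after thapsigargin emptied calcium stores; entry-to-rest ratio filled for only some wells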
Direction: calcium entry signal: higher = stronger calcium signal after store depletion; entry to resting ratio: higher = more calcium entry relative to resting level; resting calcium signal: higher = higher resting calcium signal
Rule for the call: 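Called when the plate z-score of the entry-to-rest ratio, mean of duplicates, falls below −3; wells with low overall dye signal (Fmax z below −2) or more than five off-targets excluded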
Calls: active = strongly reduced calcium entry; inactive = no strong reduction

| target gene | amplicon | calcium entry signal, replicate 1 (fluorescence units) | calcium entry signal, replicate 2 (fluorescence units) | entry to resting ratio | resting calcium signal, replicate 1 (fluorescence units) | resting calcium signal, replicate 2 (fluorescence units) |
| --- | --- | --- | --- | --- | --- | --- |
| Ect3 | DRSC15462 | 3.80e7 | 3.24e7 | – | 1.76e7 | 1.67e7 |
| CG14160 | DRSC10161 | 2.67e7 | 3.45e7 | – | 1.41e7 | 1.54e7 |
| CG9705 | DRSC11094 | 2.34e7 | 3.38e7 | – | 1.22e7 | 2.28e7 |
| CG9406 | DRSC04552 | 4.78e7 | 4.75e7 | – | 2.16e7 | 2.27e7 |
| CG3224 | DRSC18295 | 2.58e7 | 3.03e7 | – | 1.40e7 | 1.63e7 |
| Sur | DRSC03447 | 4.94e7 | – | – | 2.39e7 | – |
| CG10801 | DRSC17761 | 3.21e7 | 6.55e7 | 2.1 | 1.50e7 | 2.64e7 |
| Acsl | DRSC07252 | 4.89e7 | 5.29e7 | – | 1.96e7 | 2.36e7 |
| CG3652 | DRSC00624 | 3.32e7 | 2.22e7 | – | 1.62e7 | 1.09e7 |
| CG17124 | DRSC02580 | 4.00e7 | 5.11e7 | – | 1.72e7 | 2.30e7 |
| CG11134 | DRSC19384 | 3.53e7 | 2.55e7 | – | 1.98e7 | 1.35e7 |
| ash2 | DRSC16902 | 3.70e7 | 3.21e7 | – | 1.86e7 | 1.47e7 |
| CG31798 | DRSC01702 | 2.87e7 | 4.27e7 | – | 1.64e7 | 2.19e7 |
| TfIIA-L | DRSC16882 | 2.20e7 | 2.88e7 | – | 1.17e7 | 1.47e7 |
| wcy | DRSC20132 | 2.94e7 | 2.07e7 | – | 1.37e7 | 1.06e7 |
| CG8003 | DRSC10946 | 3.45e7 | 2.02e7 | – | 2.38e7 | 9.07e6 |
| GstE12 | DRSC04047 | 4.97e7 | 5.02e7 | – | 2.27e7 | 2.25e7 |
| nerfin-1 | DRSC08729 | 1.96e7 | 3.02e7 | – | 1.06e7 | 1.23e7 |
| l(3)mbt | DRSC16983 | 3.14e7 | 4.38e7 | – | 1.47e7 | 1.90e7 |
| ChAT | DRSC13314 | 4.92e7 | 2.29e7 | – | 1.95e7 | 1.11e7 |
| ChAT | DRSC16609 | 3.26e7 | 3.57e7 | – | 5.79e7 | 1.56e7 |
| ChAT | DRSC22755 | 3.81e7 | 3.55e7 | – | 2.20e7 | 1.73e7 |
| nAChRbeta2 | DRSC17010 | 3.85e7 | 2.56e7 | – | 1.76e7 | 1.27e7 |
| CG44838 | DRSC10330 | 3.43e7 | 3.07e7 | – | 2.74e7 | 1.60e7 |
| CG44838 | DRSC10371 | 4.44e7 | 4.07e7 | – | 3.27e7 | 1.77e7 |
| Prosalpha6T | DRSC02873 | 4.48e7 | 3.34e7 | – | 2.01e7 | 1.62e7 |
| CG5565 | DRSC00690 | 4.16e7 | 5.15e7 | – | 1.91e7 | 2.26e7 |
| Rh5 | DRSC03412 | 5.66e7 | – | – | 2.65e7 | – |
| CR6900 | DRSC20018 | 5.08e7 | 3.47e7 | – | 2.29e7 | 1.54e7 |
| Obp85a | DRSC14362 | 3.03e7 | 2.91e7 | – | 1.47e7 | 1.48e7 |
| CG3679 | DRSC19346 | 3.87e7 | 4.21e7 | – | 1.84e7 | 2.08e7 |
| CG17298 | DRSC15221 | 3.22e7 | 3.29e7 | – | 3.20e7 | 1.49e7 |
| Rh50 | DRSC08692 | 4.59e7 | 3.87e7 | – | 2.99e7 | 1.67e7 |
| Lnpk | DRSC07254 | 5.82e7 | 3.95e7 | – | 2.47e7 | 1.88e7 |
| CG15020 | DRSC08474 | 1.99e7 | 2.88e7 | – | 9.72e6 | 1.23e7 |
| smp-30 | DRSC17059 | 3.21e7 | 5.70e7 | – | 1.63e7 | 7.40e7 |
| GCS2beta | DRSC02960 | 3.50e7 | 1.89e7 | – | 1.72e7 | 1.05e7 |
| His2B:CG33870 + His2B:CG33868 + His2B:CG33882 + 21 more | DRSC03757 | 1.64e7 | 2.39e7 | – | 1.23e7 | 1.50e7 |
| Tsp66A + CG42661 + CG42660 | DRSC10233 | 3.16e7 | 4.85e7 | – | 1.64e7 | 2.03e7 |
| Gr93a | DRSC14593 | 4.36e7 | 3.83e7 | – | 5.58e7 | 1.89e7 |

Just “calcium entry signal, replicate 2 (fluorescence units)”, for 3 of the entries above:
CG44838 [DRSC10371] = 4.07e7
Prosalpha6T [DRSC02873] = 3.34e7
CG5565 [DRSC00690] = 5.15e7
